According to patent US20160289663A1, “NOVEL CHIMERIC GENE ATF7IP-PDGFRB OF ACUTE LYMPHOBLASTIC LEUKEMIA” (priority 2013, published 2016):

Tested on: ATF7IP-PDGFRB-expressing Ba/F3 cells
Test: Cell proliferation (WST) assay, ATF7IP-PDGFRB Ba/F3 transfectants without conditioned medium
Settings: Mus musculus, BaF3, 24 h, read-out: calculated IC50 value
Experimental: (A) ATF7IP-PDGFRB-expressing Ba/F3 cells in the absence of WEHI-3-conditioned medium (CM) and Mock Ba/F3 cells in the presence of CM were each treated with or without either the PI3 kinase inhibitor LY294002 or the MEK inhibitor PD98059 at the indicated concentrations for 24 hours. Subsequently, the number of living cells was estimated for each type of the cells by WST assay in the same way as in FIG. 5B. The ratio of the OD value obtained from the inhibitor-treated cells relative to that obtained from the inhibitor-untreated cells was calculated and expressed as the means±SEM of triplicates. (B) ATF7IP-PDGFRB-expressing Ba/F3 cells were treated with PD98059 in the presence or absence of CM, and examined in the same way as in (A). […]
The data were analyzed by F-test. P values less than 0.05 were considered significant. All experiments were performed at least three times to calculate means and SEM values.

Cc1ccc(NC(=O)c2ccc(CN3CCN(C)CC3)cc2)cc1Nc1nccc(-c2cccnc2)n1 [imatinib]
IC50: 45.6 nM
